Here are results for one compound from patent US7786145B2, “Cyanoguanidine-based azole compounds useful as malonyl-CoA decarboxylase inhibitors” (Chugai Seiyaku Kabushiki Kaisha, priority 2003, dated 2010).

Amino acid sequences for entries named in this document (tags omitted). Residues count along the entry.
UniProt O95822, 40-493 limits assumed: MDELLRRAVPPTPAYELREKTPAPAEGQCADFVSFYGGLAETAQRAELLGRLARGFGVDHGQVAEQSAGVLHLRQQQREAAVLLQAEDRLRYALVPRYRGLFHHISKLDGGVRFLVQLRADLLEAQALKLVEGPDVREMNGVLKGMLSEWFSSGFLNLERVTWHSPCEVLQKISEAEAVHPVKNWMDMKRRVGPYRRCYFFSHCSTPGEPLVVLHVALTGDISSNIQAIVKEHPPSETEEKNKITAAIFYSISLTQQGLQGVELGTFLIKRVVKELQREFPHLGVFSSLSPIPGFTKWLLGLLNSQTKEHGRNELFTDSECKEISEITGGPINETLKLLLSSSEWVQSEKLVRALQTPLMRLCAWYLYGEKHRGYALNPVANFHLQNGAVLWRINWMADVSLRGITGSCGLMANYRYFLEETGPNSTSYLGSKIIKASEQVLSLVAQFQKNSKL

The target in this assay is hMCD (malonyl-CoA decarboxylase) (Homo sapiens, UniProt O95822). The assay is described as follows: In Vitro MCD Inhibitory Assay. Particulars: Table 1, MCD inhibition. How it is done:
In Vitro MCD Inhibitory Assay:
The conversion of […] was assayed using a modified protocol as previously described by Kim, Y. S. and Kolattukudy, P. E. in 1978 (Arch. Biochem. Biophys 190:585 (1978)). As shown in eq. 1-3, the establishment of the kinetic equilibrium between malate/NAD and oxaloacetate/NADH was catalyzed by malic dehydrogenase (eq. 2). […] The accumulation of NADH can be continuously followed by monitoring the increase of fluorescence emission at 460 nm on a fluorescence plate reader. The fluorescence plate reader was calibrated using the authentic acetyl-CoA from Sigma. For a typical 96-well plate assay, the increase in the fluorescence emission (λex=360 nm, λem=460 nm, for NADH) in each well was used to calculate the initial velocity of hMCD. Each 50 μL assay contained 10 mM phosphate buffered saline (Sigma), pH 7.4, 0.05% Tween-20, 25 mM K2HPO4—KH2PO4 (Sigma), 2 mM Malate (Sigma), 2 mM NAD (Boehringer Mannheim), 0.786 units of MD (Roche Chemicals), 0.028 unit of CS (Roche Chemicals), 5-10 nM hMCD, and varying amounts of MCA substrate. Assays were initiated by the addition of MCA, and the rates were corrected for the background rate determined in the absence of hMCD.

Molecules are shown by their SMILES. The structures given here were assigned with low confidence; some may be wrong.

With `CCN(C(C)=O)C1CCN(C(=NC#N)Nc2ccc3nc(S)sc3c2)C1` (stereo not shown), the Ki turned out to be 1410 nM.

A word on the Ki: it is a measure of affinity in units of concentration, obtained from inhibition or displacement.
